Assay results published in paper PMC7819943, “Rice protein-binding microarrays: a tool to detect cis-acting elements near promoter regions in rice”.
This is one part of the list.

The chains behind the UniProt entries cited, without tags or fusion partners.
UniProt Q0JBA9, entry or part of it: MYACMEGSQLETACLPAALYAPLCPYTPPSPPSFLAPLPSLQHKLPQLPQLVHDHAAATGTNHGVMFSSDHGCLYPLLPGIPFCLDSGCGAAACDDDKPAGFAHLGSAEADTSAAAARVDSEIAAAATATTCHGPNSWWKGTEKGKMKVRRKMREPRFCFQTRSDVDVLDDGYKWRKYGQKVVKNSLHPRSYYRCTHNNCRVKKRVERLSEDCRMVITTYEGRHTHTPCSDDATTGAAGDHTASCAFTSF

These sequences were tested against OsWRKY34 (Oryza sativa, UniProt Q0JBA9 1-250) (assay: protein-binding microarray (RPBM); PBS, 2% BSA, 51.3 ng/ul salmon testes DNA, 50 uM zinc acetate, 200 nM TF, 25 C, 1 h; high values mean tight binding). Details: protein: recombinant; tags: N-terminal polyhistidine and DsRed monomer fusion (pET32a); label: CyDye5-dUTP incorporated in the synthesized complementary strand; 3' TTTTT single-stranded linker to array surface; dsDNA, one strand shown.
Method in brief: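 An Axon 4000B scanner gave the binding signal as per-feature fluorescence intensity in arbitrary units. This followed washing of a custom Agilent array that had been incubated for 1 h at 25 °C with 200 nM protein in PBS, 2% BSA, salmon testes DNA and 50 µM zinc acetate. The proteins were transcription factors fused at the N-terminus to polyhistidine and DsRed, expressed in E. coli BL21-CodonPlus and purified on Ni–NTA.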

Compared with “GTGAGACTTCTCTTTCCCGGGAGCGCCAGAACTCCTCTCACGGAGTCACCTAGTGCAG”, “GGGTCATGAATTAGATTGGTCACTTTTGAGGGTCCTGAAGCGGAGTCACCTAGTGCAG” is higher in binding signal: 8160 fluorescence intensity (a.u.) for the first, 10700 fluorescence intensity (a.u.) for the second.

Compared with “TATTCTATGCATTTGCATGTTCCTTGTTTCTTTGTGGAAGCGGAGTCACCTAGTGCAG”, “CATAGATCATGTATTGTTTGGTTAACTTTTGGTAGTTGCACGGAGTCACCTAGTGCAG” is higher in binding signal: 8840 fluorescence intensity (a.u.) for the first, 8870 fluorescence intensity (a.u.) for the second.

Going from “ACCGACATACAATTTCATATTCGCGTGTTTTATCATTACACGGAGTCACCTAGTGCAG” to “ACCCACCACAACCAGTGATCAGACACCACCTACCGCGCGCCGGAGTCACCTAGTGCAG”, the binding signal falls from 8880 fluorescence intensity (a.u.) to 8330 fluorescence intensity (a.u.).

Going from “ACGAAGTTCCTGCTTTTATGTTGTTCTTTTTTAGGTCTTGCGGAGTCACCTAGTGCAG” to “ATTTTTTCACGTTCGGACCTATGGTTTTTTTGCCACTTTGCGGAGTCACCTAGTGCAG”, the binding signal rises from 8380 fluorescence intensity (a.u.) to 8520 fluorescence intensity (a.u.).

First: CACCCGGTCCAACCCTTTGCTTTTGCCACTCTATAAATACCGGAGTCACCTAGTGCAG
Second: CTGCAAGAGATACACCTATGTTAGCCACGTCTTTTCTGTTCGGAGTCACCTAGTGCAG
The binding signal of the first is higher: 11100 fluorescence intensity (a.u.) for the first, 8560 fluorescence intensity (a.u.) for the second.

Going from “CGCCACCCATCTCCATCTTCGCCCACGCACCCGCACGGTCCGGAGTCACCTAGTGCAG” to “TGTGTTTGCTTGTCTCAGTTGTGTTCTTAACTGACTTCCCCGGAGTCACCTAGTGCAG”, the binding signal rises from 8880 fluorescence intensity (a.u.) to 9240 fluorescence intensity (a.u.).

Going from “TCCTCTATTGTTTTCTCGATTCTTCGCAGGGAAGGGGATACGGAGTCACCTAGTGCAG” to “AATGAACTTCCAGCTTTGCCACATTCCTTTGGCTTGAAAACGGAGTCACCTAGTGCAG”, the binding signal rises from 8230 fluorescence intensity (a.u.) to 8300 fluorescence intensity (a.u.).

Going from “GCACAAACTTCGTACTTTAACTCCTACGGTTTTATTTTTTCGGAGTCACCTAGTGCAG” to “TGGGGTTCTTGTTTTTCTTTTCCGGGATCTTTGGGTGATGCGGAGTCACCTAGTGCAG”, the binding signal rises from 11000 fluorescence intensity (a.u.) to 15900 fluorescence intensity (a.u.).

Going from “TCCAATCAAACGCGTTTTTTCTGTGTTTTGCAATCGTCTGCGGAGTCACCTAGTGCAG” to “GTCAGGTCTGCTTCCGCCCGCTGAGCTTCACGCCGTCCTCCGGAGTCACCTAGTGCAG”, the binding signal rises from 10700 fluorescence intensity (a.u.) to 10800 fluorescence intensity (a.u.).

First: GACGCCGTTGACTTTTTATCACATATTTGACCGTTCGTCTCGGAGTCACCTAGTGCAG
Second: TATTCATGTTTTTATGGACGTTAGCAACATTATCACAAAACGGAGTCACCTAGTGCAG
The binding signal of the first is higher: 20400 fluorescence intensity (a.u.) for the first, 8030 fluorescence intensity (a.u.) for the second.

Going from “ATGTTCGTTGACTTAAGTTCGCGCCAATACATATCCAGCACGGAGTCACCTAGTGCAG” to “CGTATGCCGCGCGCCCACTGTATAAATAGGCCGCATGTTCCGGAGTCACCTAGTGCAG”, the binding signal falls from 12000 fluorescence intensity (a.u.) to 9680 fluorescence intensity (a.u.).

Compared with “ACGGTTATAGGGGTGGCTAGGATTGAACCAACATAAATTGCGGAGTCACCTAGTGCAG”, “TCACTTCGGCTTCGCTTCCATGGCGATCACCGCGGCCACCCGGAGTCACCTAGTGCAG” is higher in binding signal: 8280 fluorescence intensity (a.u.) for the first, 8680 fluorescence intensity (a.u.) for the second.

Compared with “GTCATTTCCAGAACTAGTCATGTCCTTCGATCTGCTTGTTCGGAGTCACCTAGTGCAG”, “CCCACGGTTTCCACGTCGCGTGTGCATCTGCAACTCATCTCGGAGTCACCTAGTGCAG” is higher in binding signal: 8230 fluorescence intensity (a.u.) for the first, 9770 fluorescence intensity (a.u.) for the second.

First: CAAAACTCTCTTGTCGTCCTCAAACCATTACCTGGCATAGCGGAGTCACCTAGTGCAG
Second: ATCATGTTTTTTATACTTTAATGTACACACGAACTATATACGGAGTCACCTAGTGCAG
The binding signal of the first is lower: 8290 fluorescence intensity (a.u.) for the first, 8470 fluorescence intensity (a.u.) for the second.

Going from “TACCTTCTGACGTTATCTTCTGCTTTGATTTTACGTCACACGGAGTCACCTAGTGCAG” to “GTCCCTCCGTCTTATTTTAAGTGTATTTATGGTTTTTTTTCGGAGTCACCTAGTGCAG”, the binding signal falls from 10100 fluorescence intensity (a.u.) to 9320 fluorescence intensity (a.u.).

Going from “TTATTCCTGGTGATGTTATAAATTGATTTCTCTATAGACACGGAGTCACCTAGTGCAG” to “GCTACACAAAATATTTTTGTGCCATTATTTTTTTTCCATACGGAGTCACCTAGTGCAG”, the binding signal rises from 8150 fluorescence intensity (a.u.) to 8400 fluorescence intensity (a.u.).

Compared with “AATAGTTCGTGTGACGTTAATGGTCCCGTTCTTTGCTTCACGGAGTCACCTAGTGCAG”, “AACCTGAACACATATTCATCAAACAAACACATTTATATTTCGGAGTCACCTAGTGCAG” is lower in binding signal: 9370 fluorescence intensity (a.u.) for the first, 8230 fluorescence intensity (a.u.) for the second.

Going from “TTCTCTGTTTCTTCTGCCTTCACCACCTGCTCCACATTTTCGGAGTCACCTAGTGCAG” to “AGTAGCATTTGTTGACTTGTTGTATTCTTCTAGCCTTTTTCGGAGTCACCTAGTGCAG”, the binding signal rises from 10900 fluorescence intensity (a.u.) to 13800 fluorescence intensity (a.u.).

First: GCTGCGGCCGTCAACGTGGTCGTCGTCTCCGCGGCCGCCGCGGAGTCACCTAGTGCAG
Second: ACCACTCTCTTCAAAAATAGGTCCTCTACAGTACTGTCTTCGGAGTCACCTAGTGCAG
The binding signal of the first is higher: 46900 fluorescence intensity (a.u.) for the first, 8780 fluorescence intensity (a.u.) for the second.

Going from “GGGTTGGAAGGGAGGCGGCGGGAGAGCACGGTAGCGCTAGCGGAGTCACCTAGTGCAG” to “AGAATTGATTAGCTCTTGTTTCTATCATGTTAAACACATTCGGAGTCACCTAGTGCAG”, the binding signal falls from 10600 fluorescence intensity (a.u.) to 8420 fluorescence intensity (a.u.).

Compared with “AGCCGGCTGCATGCGTCGCTCTTCGCCCACCGCTGCGCCGCGGAGTCACCTAGTGCAG”, “ATATCTAGACAATCAAGCTGTTGACCGAGTTTTCAGGGTGCGGAGTCACCTAGTGCAG” is higher in binding signal: 8440 fluorescence intensity (a.u.) for the first, 10600 fluorescence intensity (a.u.) for the second.
